Laboratory results reported in doi:10.1101/2024.04.30.591829.
No constants are given. Whether binding was seen depends on the method and setting. Binding seen in cells or lysates may run through a third protein. Tags and fused reporters may be left off the sequences shown.

Target: T1, Tom71-HA (S. cerevisiae) (UniProt P38825)
T1 sequence: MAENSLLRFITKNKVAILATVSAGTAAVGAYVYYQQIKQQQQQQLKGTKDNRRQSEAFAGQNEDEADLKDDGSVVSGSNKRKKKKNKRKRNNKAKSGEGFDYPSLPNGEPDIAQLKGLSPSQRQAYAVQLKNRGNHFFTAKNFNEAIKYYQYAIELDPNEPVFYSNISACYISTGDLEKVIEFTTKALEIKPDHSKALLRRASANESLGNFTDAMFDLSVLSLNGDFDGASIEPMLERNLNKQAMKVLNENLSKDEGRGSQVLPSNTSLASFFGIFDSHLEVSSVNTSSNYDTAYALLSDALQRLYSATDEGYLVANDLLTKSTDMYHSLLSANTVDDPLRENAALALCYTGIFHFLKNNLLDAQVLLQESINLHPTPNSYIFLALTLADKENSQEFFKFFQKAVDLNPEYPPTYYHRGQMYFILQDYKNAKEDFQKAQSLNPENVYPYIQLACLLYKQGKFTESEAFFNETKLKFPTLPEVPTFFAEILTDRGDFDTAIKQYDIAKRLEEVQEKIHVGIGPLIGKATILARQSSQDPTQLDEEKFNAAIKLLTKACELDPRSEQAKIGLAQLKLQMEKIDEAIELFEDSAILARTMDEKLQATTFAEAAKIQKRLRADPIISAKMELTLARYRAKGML
Experiment: co-IP

- binding: no binding
B1: Flag-Pex19 (protein, UniProt Q07418 1-342)
chain: MNENEYDNFDDLDDLLDEDPTKLDEAEPDDVQAKGSVYNDSENKEKNAESKDSDGVQVANESEEDPELKEMMVDLQNEFANLMKNNGNENNVKTEDFNKLISALEEAAKVPHQQMEQGCSSLKSNSTDKGTVNGSNPGFKNIVSNTLDRLKENGNKVDTSLAEETKESQRSGQNNNIDDILSQLLDQMVASGGKESAENQFDLKDGEMDDAITKILDQMTSKEVLYEPMKEMRSEFGVWFQENGENEEHKEKIGTYKRQFNIVDEIVNIYELKDYDELKHKDRVTELLDELEQLGDSPIRSANSPLKHGNEEEELMKMLEIDGNDPNLGNLDKELTDGCKQQ
